In patent US20240132590A1:
These are yes or no findings as the source states them, for the method shown. Some entries that bind do so weakly or less than the wild type.

By UniProt entry, the sequences of proteins in these tests, tags left out. Where a name states a change or a piece, a line headed by the entry shows the natural chain unless it says otherwise.
UniProt P07766: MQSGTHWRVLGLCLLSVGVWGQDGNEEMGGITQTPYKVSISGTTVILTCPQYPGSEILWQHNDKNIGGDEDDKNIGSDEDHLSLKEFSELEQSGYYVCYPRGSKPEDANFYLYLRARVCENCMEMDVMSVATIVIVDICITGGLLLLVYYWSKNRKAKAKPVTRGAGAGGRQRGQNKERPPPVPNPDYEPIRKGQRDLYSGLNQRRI

Experiments:
[1] = target: human CD3 on cells (human) (UniProt P07766); experiment: flow cytometry on CD3 expressing cells, IgG format
[2] = target: human CD3 on cells (human) (UniProt P07766); experiment: flow cytometry on Jurkat NFAT cells, PE-labelled anti-human Fc secondary antibody
[3] = target: human CD3 on cells (human) (UniProt P07766); experiment: flow cytometry on Jurkat NFAT cells, PE anti-human Fc secondary antibody

Measured: binding

B1: CD3opt human IgG1 PGLALA (antibody, V domains shown)
VH: EVQLLESGGGLVQPGGSLRLSCAASGFQFSSYAMNWVRQAPGKGLEWVSRIRSKYNNYATYYADSVKGRFTISRDDSKNTLYLQMNSLRAEDTAVYYCVRHTTFPSSYVSYYGYWGQGTLVTVSS
VL: QAVVTQEPSLTVSPGGTVTLTCGSSTGAVTTSNYANWVQEKPGQAFRGLIGGTNKRAPGTPARFSGSLLGGKAALTLSGAQPEDEAEYYCALWYSNLWVFGGGTKLTVLR
binds: all assays above
